Laboratory results reported in the supplement of paper PMC6411743.
± gives the standard deviation of the averaged measurements. This is one part of the list.

The chains behind the UniProt entries cited, without tags or fusion partners. Where a name states a change or a piece, a line headed by the entry shows the natural chain unless it says otherwise.
UniProt Q9H1B7, whole entry: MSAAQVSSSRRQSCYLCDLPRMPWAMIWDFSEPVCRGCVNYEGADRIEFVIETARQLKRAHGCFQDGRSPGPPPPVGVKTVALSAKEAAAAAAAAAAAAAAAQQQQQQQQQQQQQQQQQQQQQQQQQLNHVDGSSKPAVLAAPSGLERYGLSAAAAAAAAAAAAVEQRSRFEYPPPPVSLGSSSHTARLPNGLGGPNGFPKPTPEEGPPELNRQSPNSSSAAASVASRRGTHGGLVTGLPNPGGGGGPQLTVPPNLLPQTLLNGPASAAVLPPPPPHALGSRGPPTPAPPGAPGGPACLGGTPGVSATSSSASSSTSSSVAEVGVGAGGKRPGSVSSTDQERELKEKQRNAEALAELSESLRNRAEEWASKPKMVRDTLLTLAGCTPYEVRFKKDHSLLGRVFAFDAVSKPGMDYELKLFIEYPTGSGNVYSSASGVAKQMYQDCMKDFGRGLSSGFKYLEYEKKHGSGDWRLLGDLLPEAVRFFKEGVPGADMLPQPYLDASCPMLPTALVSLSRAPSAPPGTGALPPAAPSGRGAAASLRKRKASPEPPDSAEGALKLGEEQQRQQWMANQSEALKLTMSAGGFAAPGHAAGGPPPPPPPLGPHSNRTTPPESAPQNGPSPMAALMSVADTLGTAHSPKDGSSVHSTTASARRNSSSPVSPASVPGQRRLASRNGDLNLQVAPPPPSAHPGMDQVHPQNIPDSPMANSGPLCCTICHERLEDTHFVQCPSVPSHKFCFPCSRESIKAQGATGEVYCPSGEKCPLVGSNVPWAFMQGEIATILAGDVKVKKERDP
UniProt Q9NT62, whole entry: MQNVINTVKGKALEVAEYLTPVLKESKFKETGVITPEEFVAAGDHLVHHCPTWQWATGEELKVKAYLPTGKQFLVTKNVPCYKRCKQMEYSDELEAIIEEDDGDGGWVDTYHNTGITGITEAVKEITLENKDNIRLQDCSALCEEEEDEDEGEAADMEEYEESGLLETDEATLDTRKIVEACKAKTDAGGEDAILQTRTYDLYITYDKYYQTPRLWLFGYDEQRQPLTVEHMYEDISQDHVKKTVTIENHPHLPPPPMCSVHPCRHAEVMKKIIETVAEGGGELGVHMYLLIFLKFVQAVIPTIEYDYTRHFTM
UniProt Q9HBL7: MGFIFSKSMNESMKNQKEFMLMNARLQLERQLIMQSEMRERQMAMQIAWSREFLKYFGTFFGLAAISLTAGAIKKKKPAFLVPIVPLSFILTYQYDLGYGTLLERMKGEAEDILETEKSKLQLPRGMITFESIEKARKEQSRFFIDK
UniProt Q9NPD8: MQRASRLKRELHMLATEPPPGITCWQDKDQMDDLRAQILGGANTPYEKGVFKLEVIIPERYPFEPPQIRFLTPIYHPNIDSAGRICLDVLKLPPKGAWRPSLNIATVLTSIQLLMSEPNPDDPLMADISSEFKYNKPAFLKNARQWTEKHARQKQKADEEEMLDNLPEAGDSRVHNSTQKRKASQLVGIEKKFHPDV
UniProt Q9H6F5: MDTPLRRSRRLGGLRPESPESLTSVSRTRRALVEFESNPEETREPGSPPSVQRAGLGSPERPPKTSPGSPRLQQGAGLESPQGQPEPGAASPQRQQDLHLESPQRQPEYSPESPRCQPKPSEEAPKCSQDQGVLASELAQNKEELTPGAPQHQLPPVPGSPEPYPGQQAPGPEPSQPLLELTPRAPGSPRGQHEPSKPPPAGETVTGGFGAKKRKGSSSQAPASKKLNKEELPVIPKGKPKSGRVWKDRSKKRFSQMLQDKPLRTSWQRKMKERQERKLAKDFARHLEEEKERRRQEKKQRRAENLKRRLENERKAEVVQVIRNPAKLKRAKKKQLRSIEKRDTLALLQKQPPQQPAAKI
UniProt Q9H4L5: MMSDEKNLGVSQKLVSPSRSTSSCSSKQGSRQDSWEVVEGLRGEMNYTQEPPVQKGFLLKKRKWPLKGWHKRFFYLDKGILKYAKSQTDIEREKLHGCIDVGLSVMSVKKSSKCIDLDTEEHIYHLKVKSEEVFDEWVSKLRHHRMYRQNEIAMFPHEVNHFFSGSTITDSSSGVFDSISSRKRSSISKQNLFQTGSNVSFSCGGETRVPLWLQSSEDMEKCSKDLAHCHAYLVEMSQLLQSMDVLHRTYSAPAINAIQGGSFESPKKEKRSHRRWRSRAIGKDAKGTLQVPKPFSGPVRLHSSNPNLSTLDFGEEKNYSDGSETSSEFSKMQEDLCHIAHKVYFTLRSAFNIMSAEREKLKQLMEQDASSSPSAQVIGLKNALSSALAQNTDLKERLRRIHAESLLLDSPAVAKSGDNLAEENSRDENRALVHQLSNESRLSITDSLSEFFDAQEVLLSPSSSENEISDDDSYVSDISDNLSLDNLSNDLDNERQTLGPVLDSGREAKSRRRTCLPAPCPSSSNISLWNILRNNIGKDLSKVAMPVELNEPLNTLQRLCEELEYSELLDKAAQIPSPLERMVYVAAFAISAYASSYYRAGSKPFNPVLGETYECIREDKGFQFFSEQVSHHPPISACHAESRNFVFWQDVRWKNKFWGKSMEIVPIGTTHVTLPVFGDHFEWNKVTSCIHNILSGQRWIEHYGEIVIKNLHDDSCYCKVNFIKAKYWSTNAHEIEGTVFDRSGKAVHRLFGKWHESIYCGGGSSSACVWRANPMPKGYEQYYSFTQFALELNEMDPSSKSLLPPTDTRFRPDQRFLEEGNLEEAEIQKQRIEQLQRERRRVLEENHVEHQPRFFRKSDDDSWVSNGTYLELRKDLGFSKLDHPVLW
UniProt Q9H0D6: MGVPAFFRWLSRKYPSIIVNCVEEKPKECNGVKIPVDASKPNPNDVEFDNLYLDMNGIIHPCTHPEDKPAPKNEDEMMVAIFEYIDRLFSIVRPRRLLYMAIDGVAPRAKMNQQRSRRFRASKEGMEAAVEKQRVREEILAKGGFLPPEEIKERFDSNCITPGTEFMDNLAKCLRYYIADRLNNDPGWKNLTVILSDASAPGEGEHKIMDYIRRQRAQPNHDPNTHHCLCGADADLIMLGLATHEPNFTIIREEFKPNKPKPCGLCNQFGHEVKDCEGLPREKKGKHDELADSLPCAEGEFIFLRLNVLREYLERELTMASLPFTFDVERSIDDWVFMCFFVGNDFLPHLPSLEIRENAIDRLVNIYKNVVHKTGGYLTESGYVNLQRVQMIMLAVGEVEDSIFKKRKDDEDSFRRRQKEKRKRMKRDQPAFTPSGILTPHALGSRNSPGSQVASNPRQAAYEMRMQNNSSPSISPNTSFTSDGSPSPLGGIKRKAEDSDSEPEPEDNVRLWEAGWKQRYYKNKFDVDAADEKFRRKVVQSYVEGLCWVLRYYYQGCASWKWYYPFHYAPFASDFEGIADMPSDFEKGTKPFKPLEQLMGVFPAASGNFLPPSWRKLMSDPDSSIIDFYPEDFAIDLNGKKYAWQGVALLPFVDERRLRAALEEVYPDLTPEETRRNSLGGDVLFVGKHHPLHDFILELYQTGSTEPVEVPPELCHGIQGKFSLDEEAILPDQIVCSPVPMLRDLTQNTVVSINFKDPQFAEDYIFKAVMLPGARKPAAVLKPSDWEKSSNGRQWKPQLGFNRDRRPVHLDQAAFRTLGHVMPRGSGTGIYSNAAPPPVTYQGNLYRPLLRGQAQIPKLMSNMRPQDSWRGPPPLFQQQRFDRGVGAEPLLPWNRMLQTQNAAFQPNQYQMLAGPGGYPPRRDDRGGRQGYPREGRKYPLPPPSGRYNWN
UniProt Q9HC07: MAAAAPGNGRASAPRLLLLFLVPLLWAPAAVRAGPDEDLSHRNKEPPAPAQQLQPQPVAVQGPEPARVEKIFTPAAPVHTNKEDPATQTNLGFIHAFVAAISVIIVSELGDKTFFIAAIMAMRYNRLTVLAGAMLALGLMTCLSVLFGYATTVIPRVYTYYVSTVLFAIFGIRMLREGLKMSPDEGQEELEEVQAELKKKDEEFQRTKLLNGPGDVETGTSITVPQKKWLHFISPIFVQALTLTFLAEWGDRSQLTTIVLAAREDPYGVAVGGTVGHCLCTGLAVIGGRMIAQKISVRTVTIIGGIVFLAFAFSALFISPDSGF
UniProt Q9NPA0: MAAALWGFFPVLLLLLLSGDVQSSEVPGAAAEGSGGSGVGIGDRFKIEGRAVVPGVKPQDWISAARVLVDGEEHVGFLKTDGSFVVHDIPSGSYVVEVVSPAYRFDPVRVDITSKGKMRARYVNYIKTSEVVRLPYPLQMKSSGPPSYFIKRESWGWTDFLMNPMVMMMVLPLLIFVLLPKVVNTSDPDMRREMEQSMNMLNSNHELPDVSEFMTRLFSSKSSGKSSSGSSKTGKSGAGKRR
UniProt Q9C0B5: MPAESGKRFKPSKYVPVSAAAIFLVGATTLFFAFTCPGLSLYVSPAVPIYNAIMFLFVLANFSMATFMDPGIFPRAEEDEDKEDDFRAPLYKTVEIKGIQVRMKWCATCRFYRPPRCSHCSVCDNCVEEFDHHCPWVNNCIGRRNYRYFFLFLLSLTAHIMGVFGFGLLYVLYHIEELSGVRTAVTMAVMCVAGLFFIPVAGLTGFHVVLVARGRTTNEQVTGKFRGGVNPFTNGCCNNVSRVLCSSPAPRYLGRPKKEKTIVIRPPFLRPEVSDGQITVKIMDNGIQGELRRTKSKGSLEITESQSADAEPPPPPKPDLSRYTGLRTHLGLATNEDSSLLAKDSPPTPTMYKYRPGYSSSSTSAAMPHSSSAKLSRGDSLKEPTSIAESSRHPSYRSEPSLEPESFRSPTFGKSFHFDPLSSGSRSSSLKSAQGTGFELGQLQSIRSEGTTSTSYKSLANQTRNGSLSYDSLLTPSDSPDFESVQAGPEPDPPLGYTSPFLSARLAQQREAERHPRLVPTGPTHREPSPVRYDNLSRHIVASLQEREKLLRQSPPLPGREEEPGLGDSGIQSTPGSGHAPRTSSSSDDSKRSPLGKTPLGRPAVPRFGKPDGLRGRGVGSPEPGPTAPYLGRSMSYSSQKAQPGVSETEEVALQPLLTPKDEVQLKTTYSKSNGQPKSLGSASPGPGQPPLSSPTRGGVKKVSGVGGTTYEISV
UniProt Q9NRG4: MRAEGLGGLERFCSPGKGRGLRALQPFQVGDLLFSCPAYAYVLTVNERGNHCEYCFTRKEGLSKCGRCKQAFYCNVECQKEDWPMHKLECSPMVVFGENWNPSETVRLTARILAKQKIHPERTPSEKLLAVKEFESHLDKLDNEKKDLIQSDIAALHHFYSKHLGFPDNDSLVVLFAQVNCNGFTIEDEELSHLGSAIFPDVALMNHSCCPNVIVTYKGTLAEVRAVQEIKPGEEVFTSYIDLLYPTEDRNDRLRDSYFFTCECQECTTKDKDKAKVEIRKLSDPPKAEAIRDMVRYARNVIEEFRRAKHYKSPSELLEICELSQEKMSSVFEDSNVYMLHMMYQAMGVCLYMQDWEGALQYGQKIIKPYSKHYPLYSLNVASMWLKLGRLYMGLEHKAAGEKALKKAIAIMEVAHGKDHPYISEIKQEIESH
UniProt Q9H7L9: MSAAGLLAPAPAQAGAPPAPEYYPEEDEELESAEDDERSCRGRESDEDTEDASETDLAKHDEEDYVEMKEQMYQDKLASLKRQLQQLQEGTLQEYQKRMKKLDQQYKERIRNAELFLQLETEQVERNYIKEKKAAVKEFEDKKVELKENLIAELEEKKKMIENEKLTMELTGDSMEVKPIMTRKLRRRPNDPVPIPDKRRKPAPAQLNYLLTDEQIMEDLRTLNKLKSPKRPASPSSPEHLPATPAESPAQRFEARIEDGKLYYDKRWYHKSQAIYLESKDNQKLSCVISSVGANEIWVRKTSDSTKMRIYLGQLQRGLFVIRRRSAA
UniProt Q9H6Y2: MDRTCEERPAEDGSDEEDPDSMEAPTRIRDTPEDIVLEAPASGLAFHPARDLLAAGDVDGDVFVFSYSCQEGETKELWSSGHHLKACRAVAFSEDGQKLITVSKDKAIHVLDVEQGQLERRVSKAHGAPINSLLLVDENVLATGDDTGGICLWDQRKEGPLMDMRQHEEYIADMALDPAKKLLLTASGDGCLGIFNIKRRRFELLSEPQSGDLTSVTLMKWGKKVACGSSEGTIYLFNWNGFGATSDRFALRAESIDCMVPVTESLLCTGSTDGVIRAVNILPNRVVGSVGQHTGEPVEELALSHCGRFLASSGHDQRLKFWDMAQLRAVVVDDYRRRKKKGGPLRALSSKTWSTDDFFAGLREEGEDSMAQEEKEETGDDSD
UniProt Q9HAS0: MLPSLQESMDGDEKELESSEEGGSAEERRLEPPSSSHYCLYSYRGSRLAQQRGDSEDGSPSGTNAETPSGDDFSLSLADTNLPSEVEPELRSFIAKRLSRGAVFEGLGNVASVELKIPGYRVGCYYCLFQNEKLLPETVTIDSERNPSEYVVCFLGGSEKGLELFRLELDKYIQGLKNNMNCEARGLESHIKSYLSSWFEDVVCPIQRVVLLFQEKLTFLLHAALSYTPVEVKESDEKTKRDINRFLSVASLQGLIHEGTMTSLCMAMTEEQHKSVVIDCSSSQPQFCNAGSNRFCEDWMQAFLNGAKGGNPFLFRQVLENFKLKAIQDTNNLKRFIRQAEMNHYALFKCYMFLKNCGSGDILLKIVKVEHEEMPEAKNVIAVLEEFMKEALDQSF

Compound: Nc1nc2c(ncn2[C@@H]2O[C@H](COP(=O)(O)OP(=O)(O)OP(=O)(O)O)[C@@H](O)[C@H]2O)c(=O)[nH]1 [guanosine triphosphate]
Assay: NP40-soluble protein abundance relative to vehicle (solubility fold change) (ratio); higher = more soluble protein in presence of GTP
How it was run: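 Data come from three independent experiments in which Dounce-homogenised Jurkat crude lysate was treated at eight concentrations from 0.1 to 10 mM. Treatment ran 10 min at room temperature and then 3 min at 37 °C, after which 0.8% NP40 and benzonase were added for 60 min at 4 °C before ultracentrifugation. The supernatant underwent TMT labelling and LC-MS/MS, and vsn-normalised intensities were expressed as fold change against the detergent-processed vehicle in each replicate.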

Target | NP40-soluble protein abundance (concentration: 0.1mM) | NP40-soluble protein abundance (concentration: 0.5mM) | NP40-soluble protein abundance (concentration: 1mM) | NP40-soluble protein abundance (concentration: 2mM) | NP40-soluble protein abundance (concentration: 4mM) | NP40-soluble protein abundance (concentration: 6mM) | NP40-soluble protein abundance (concentration: 8mM) | NP40-soluble protein abundance (concentration: 10mM)
UniProt Q9H1B7 | 0.923 ± 0.06 | 0.918 ± 0.06 | 0.951 ± 0.037 | 0.915 ± 0.063 | 0.912 ± 0.03 | 0.907 ± 0.045 | 0.941 ± 0.045 | 0.929 ± 0.04
UniProt Q9NT62 and related entries | 0.914 ± 0.083 | 0.904 ± 0.066 | 0.922 ± 0.095 | 0.882 ± 0.1 | 0.894 ± 0.12 | 0.844 ± 0.079 | 0.89 ± 0.11 | 0.903 ± 0.091
SSU72 (UniProt Q9NP77) | 0.943 ± 0.09 | 0.936 ± 0.028 | 0.995 ± 0.091 | 0.962 ± 0.042 | 0.974 ± 0.14 | 0.912 ± 0.077 | 0.947 ± 0.19 | 0.913 ± 0.052
UniProt Q9HBL7 | 0.94558 ± 0.00013 | 0.9332 ± 0.0089 | 0.886 ± 0.026 | 0.883 ± 0.012 | 0.908 ± 0.026 | 0.846 ± 0.018 | 0.823 ± 0.014 | 0.8551 ± 0.0062
UniProt Q9NQH7 and related entries | 1.07 ± 0.032 | 1.07 ± 0.11 | 0.946 ± 0.033 | 0.946 ± 0.059 | 0.969 ± 0.035 | 0.942 ± 0.085 | 0.886 ± 0.071 | 0.931 ± 0.071
NAT10 (UniProt Q9H0A0) | 1.07 ± 0.065 | 1.04 ± 0.061 | 1.02 ± 0.063 | 1.07 ± 0.065 | 1.2 ± 0.079 | 1.31 ± 0.085 | 1.37 ± 0.077 | 1.59 ± 0.11
UBE2T (UniProt Q9NPD8) | 0.968 ± 0.056 | 0.961 ± 0.068 | 1.04 ± 0.011 | 0.994 ± 0.035 | 0.946 ± 0.077 | 0.962 ± 0.052 | 0.933 ± 0.1 | 0.947 ± 0.13
CCDC86 (UniProt Q9H6F5) | 1.02 ± 0.12 | 1 ± 0.099 | 1.14 ± 0.096 | 1.24 ± 0.14 | 1.36 ± 0.15 | 1.39 ± 0.11 | 1.33 ± 0.091 | 1.67 ± 0.28
UniProt Q9H4L5 and related entries | 1.07 ± 0.021 | 1.1 ± 0.019 | 1.07 ± 0.042 | 1.1 ± 0.039 | 1.09 ± 0.038 | 1.05 ± 0.044 | 1.11 ± 0.064 | 1.07 ± 0.048
POFUT1 (UniProt Q9H488) | 1.04 ± 0.054 | 0.988 ± 0.081 | 0.969 ± 0.082 | 0.939 ± 0.1 | 0.919 ± 0.11 | 0.911 ± 0.066 | 0.904 ± 0.095 | 0.884 ± 0.097
UniProt Q9NS23 and related entries | 0.978 ± 0.032 | 1.03 ± 0.098 | 1.04 ± 0.051 | 1.04 ± 0.058 | 1.05 ± 0.09 | 1.01 ± 0.022 | 0.971 ± 0.056 | 0.968 ± 0.11
MRPL46 (UniProt Q9H2W6) | 0.904 ± 0.21 | 0.888 ± 0.2 | 1.11 ± 0.22 | 1.18 ± 0.22 | 1.15 ± 0.2 | 1.14 ± 0.22 | 0.981 ± 0.22 | 1.09 ± 0.29
UniProt Q9H425 and related entries | 0.956 ± 0.06 | 0.956 ± 0.11 | 1.05 ± 0.14 | 0.983 ± 0.14 | 0.973 ± 0.14 | 0.994 ± 0.13 | 1.01 ± 0.064 | 0.989 ± 0.079
DHX33 (UniProt Q9H6R0) | 1.01 ± 0.19 | 1.02 ± 0.15 | 1.13 ± 0.14 | 1.25 ± 0.16 | 1.29 ± 0.13 | 1.43 ± 0.18 | 1.51 ± 0.14 | 1.48 ± 0.087
XRN2 (UniProt Q9H0D6) | 0.993 ± 0.025 | 0.995 ± 0.027 | 0.974 ± 0.017 | 0.977 ± 0.027 | 0.985 ± 0.018 | 0.986 ± 0.027 | 1 ± 0.039 | 0.982 ± 0.028
UniProt Q9H2U2 and related entries | 0.947 ± 0.039 | 0.9839 ± 0.0093 | 0.909 ± 0.043 | 0.895 ± 0.028 | 0.862 ± 0.054 | 0.877 ± 0.032 | 0.857 ± 0.059 | 0.853 ± 0.058

Single values from the results shown.
For NP40-soluble protein abundance (concentration: 8mM), UBE2T (UniProt Q9NPD8) is listed with 0.933 ± 0.1
For NP40-soluble protein abundance (concentration: 6mM), UniProt Q9NT62 and related entries is listed with 0.844 ± 0.079

Carrying on:

Target | NP40-soluble protein abundance (concentration: 0.1mM) | NP40-soluble protein abundance (concentration: 0.5mM) | NP40-soluble protein abundance (concentration: 1mM) | NP40-soluble protein abundance (concentration: 2mM) | NP40-soluble protein abundance (concentration: 4mM) | NP40-soluble protein abundance (concentration: 6mM) | NP40-soluble protein abundance (concentration: 8mM) | NP40-soluble protein abundance (concentration: 10mM)
MIS12 (UniProt Q9H081) | 1.22 ± 0.043 | 1.04 ± 0.026 | 1.15 ± 0.11 | 1.06 ± 0.034 | 1.19 ± 0.057 | 1.03 ± 0.055 | 1.2 ± 0.061 | 1.23 ± 0.3
UniProt Q9HCM1 | 1.02 ± 0.041 | 0.979 ± 0.14 | 1.06 ± 0.069 | 1.07 ± 0.025 | 1.07 ± 0.088 | 1.07 ± 0.019 | 1.06 ± 0.024 | 1.158 ± 0.0046
UniProt Q9GZT8 and related entries | 0.9977 ± 0.0072 | 1 ± 0.094 | 0.876 ± 0.064 | 0.907 ± 0.13 | 0.907 ± 0.054 | 0.906 ± 0.087 | 0.873 ± 0.013 | 0.859 ± 0.04
TMEM165 (UniProt Q9HC07) | 0.979 ± 0.078 | 0.948 ± 0.081 | 0.989 ± 0.12 | 0.991 ± 0.11 | 1 ± 0.16 | 0.952 ± 0.1 | 0.959 ± 0.15 | 0.981 ± 0.13
DSN1 (UniProt Q9H410) | 0.948 ± 0.025 | 0.937 ± 0.026 | 0.941 ± 0.046 | 0.935 ± 0.012 | 0.934 ± 0.036 | 0.948 ± 0.011 | 0.945 ± 0.061 | 0.942 ± 0.031
UniProt Q9NPA0 | 0.998 ± 0.019 | 1.03 ± 0.024 | 0.9816 ± 0.0095 | 1 ± 0.024 | 0.9974 ± 0.0027 | 0.941 ± 0.015 | 0.969 ± 0.024 | 0.947 ± 0.035
UniProt Q9C0B5 and related entries | 1.02 ± 0.049 | 0.949 ± 0.024 | 0.96 ± 0.018 | 0.938 ± 0.012 | 0.903 ± 0.018 | 0.909 ± 0.019 | 1.02 ± 0.03 | 0.997 ± 0.029
SNRK (UniProt Q9NRH2) | 1.06 ± 0.025 | 1.02 ± 0.011 | 0.925 ± 0.049 | 0.98327 ± 0.00056 | 0.941 ± 0.02 | 0.854 ± 0.082 | 1.01 ± 0.036 | 0.932 ± 0.011
SMYD2 (UniProt Q9NRG4) | 1.06 ± 0.11 | 1.08 ± 0.096 | 0.989 ± 0.091 | 0.96 ± 0.092 | 0.958 ± 0.1 | 0.983 ± 0.1 | 0.982 ± 0.12 | 0.919 ± 0.079
FTO (UniProt Q9C0B1) | 1.02 ± 0.044 | 0.998 ± 0.042 | 0.957 ± 0.035 | 0.914 ± 0.028 | 0.921 ± 0.036 | 0.889 ± 0.012 | 0.906 ± 0.07 | 0.871 ± 0.066
QRSL1 (UniProt Q9H0R6) | 1.06 ± 0.05 | 1 ± 0.028 | 1.06 ± 0.079 | 0.998 ± 0.03 | 1.02 ± 0.074 | 0.978 ± 0.032 | 1.05 ± 0.057 | 0.974 ± 0.046
SUDS3 (UniProt Q9H7L9) | 0.951 ± 0.08 | 1 ± 0.048 | 1.044 ± 0.0054 | 1.04 ± 0.053 | 1.08 ± 0.093 | 1.09 ± 0.034 | 1.14 ± 0.07 | 1.13 ± 0.072
CHST12 (UniProt Q9NRB3) | 0.828 ± 0.048 | 0.941 ± 0.19 | 0.827 ± 0.12 | 0.88 ± 0.13 | 0.819 ± 0.014 | 0.891 ± 0.066 | 0.975 ± 0.022 | 0.813 ± 0.075
WDR55 (UniProt Q9H6Y2) | 1.1 ± 0.043 | 1.08 ± 0.11 | 1.18 ± 0.053 | 1.12 ± 0.047 | 1.19 ± 0.081 | 1.22 ± 0.028 | 1.23 ± 0.043 | 1.2 ± 0.047
C17orf75 (UniProt Q9HAS0) | 1.06 ± 0.095 | 1.01 ± 0.15 | 1.02 ± 0.11 | 1.02 ± 0.14 | 1.06 ± 0.17 | 1.01 ± 0.18 | 1.02 ± 0.12 | 1.05 ± 0.11
